Measured values as given in the supplement of paper PMC11732987, “Enantioselective OTUD7B fragment discovery through chemoproteomics screening and high-throughput optimisation” (Communications Chemistry, 2025).
Some of the results follow. The data scatter; read single values as rough.

Protein sequences, listed by entry. Tags and fused reporters are not part of them. Lines headed by an entry give the natural chain unless they say otherwise; changes in a name come on top. Residues count along the entry.
UniProt P51149, whole entry, looked up: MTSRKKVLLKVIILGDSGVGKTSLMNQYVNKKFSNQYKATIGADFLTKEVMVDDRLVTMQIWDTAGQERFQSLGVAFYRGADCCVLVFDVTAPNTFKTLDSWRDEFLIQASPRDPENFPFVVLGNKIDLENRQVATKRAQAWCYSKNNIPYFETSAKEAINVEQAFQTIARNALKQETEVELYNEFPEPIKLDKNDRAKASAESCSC
UniProt Q9Y3P9: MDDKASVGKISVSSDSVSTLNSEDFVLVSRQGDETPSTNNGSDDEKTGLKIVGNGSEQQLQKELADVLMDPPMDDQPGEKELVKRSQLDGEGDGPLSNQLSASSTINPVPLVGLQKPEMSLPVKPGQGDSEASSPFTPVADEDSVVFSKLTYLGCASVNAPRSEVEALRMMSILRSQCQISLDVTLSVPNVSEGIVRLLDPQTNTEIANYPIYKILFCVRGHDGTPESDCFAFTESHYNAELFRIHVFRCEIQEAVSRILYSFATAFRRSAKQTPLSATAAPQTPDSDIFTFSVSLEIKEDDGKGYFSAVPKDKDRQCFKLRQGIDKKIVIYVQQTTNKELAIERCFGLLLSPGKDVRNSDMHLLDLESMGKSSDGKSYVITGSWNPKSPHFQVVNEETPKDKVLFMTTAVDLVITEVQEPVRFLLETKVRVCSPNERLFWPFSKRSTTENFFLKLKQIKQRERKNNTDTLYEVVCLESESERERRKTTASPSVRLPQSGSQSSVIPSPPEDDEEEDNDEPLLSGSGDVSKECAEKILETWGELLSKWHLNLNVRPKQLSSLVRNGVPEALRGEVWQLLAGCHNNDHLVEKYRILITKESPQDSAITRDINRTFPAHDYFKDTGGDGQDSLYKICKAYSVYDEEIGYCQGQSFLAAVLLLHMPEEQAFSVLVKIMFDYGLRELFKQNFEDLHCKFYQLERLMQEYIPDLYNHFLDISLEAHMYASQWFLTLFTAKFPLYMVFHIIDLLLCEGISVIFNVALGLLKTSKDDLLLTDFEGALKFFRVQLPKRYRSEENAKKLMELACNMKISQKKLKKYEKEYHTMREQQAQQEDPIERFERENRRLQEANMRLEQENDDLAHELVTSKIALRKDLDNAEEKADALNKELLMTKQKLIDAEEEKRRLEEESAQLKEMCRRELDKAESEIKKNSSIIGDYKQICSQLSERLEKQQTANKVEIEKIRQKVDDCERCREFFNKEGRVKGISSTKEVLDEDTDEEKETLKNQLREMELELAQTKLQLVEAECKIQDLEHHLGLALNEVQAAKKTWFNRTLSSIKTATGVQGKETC
UniProt O75127: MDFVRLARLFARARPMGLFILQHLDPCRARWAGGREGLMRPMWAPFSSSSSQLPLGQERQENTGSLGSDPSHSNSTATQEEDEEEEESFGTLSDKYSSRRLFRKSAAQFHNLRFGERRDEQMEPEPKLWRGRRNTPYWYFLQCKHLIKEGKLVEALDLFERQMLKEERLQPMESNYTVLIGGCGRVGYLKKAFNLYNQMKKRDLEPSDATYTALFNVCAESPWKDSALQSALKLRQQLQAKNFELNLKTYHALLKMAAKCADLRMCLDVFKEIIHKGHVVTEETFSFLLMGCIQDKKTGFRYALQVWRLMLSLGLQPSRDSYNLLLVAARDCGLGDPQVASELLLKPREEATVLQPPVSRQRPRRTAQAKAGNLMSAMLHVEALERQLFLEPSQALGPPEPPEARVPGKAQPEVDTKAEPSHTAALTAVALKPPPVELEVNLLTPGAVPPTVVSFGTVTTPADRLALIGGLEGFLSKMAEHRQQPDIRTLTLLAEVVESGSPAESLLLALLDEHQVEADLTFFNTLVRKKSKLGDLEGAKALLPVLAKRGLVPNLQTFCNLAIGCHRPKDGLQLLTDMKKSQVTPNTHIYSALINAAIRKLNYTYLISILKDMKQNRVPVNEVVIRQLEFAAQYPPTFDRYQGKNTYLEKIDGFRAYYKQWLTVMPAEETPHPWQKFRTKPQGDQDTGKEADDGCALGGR
UniProt P25786: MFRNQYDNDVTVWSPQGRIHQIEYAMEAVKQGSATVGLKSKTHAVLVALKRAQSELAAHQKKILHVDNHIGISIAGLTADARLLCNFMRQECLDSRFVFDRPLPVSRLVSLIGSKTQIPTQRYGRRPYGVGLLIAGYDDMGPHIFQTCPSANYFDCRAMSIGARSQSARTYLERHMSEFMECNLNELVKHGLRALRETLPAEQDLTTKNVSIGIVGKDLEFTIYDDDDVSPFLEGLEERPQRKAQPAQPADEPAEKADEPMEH
UniProt P61006: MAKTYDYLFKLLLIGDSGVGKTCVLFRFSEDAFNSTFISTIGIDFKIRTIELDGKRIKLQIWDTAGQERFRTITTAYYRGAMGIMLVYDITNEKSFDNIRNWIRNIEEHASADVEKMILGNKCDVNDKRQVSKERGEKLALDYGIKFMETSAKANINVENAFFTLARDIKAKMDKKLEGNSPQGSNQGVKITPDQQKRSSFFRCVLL
UniProt Q9Y520, 878-902: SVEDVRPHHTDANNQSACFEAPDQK
UniProt Q14997: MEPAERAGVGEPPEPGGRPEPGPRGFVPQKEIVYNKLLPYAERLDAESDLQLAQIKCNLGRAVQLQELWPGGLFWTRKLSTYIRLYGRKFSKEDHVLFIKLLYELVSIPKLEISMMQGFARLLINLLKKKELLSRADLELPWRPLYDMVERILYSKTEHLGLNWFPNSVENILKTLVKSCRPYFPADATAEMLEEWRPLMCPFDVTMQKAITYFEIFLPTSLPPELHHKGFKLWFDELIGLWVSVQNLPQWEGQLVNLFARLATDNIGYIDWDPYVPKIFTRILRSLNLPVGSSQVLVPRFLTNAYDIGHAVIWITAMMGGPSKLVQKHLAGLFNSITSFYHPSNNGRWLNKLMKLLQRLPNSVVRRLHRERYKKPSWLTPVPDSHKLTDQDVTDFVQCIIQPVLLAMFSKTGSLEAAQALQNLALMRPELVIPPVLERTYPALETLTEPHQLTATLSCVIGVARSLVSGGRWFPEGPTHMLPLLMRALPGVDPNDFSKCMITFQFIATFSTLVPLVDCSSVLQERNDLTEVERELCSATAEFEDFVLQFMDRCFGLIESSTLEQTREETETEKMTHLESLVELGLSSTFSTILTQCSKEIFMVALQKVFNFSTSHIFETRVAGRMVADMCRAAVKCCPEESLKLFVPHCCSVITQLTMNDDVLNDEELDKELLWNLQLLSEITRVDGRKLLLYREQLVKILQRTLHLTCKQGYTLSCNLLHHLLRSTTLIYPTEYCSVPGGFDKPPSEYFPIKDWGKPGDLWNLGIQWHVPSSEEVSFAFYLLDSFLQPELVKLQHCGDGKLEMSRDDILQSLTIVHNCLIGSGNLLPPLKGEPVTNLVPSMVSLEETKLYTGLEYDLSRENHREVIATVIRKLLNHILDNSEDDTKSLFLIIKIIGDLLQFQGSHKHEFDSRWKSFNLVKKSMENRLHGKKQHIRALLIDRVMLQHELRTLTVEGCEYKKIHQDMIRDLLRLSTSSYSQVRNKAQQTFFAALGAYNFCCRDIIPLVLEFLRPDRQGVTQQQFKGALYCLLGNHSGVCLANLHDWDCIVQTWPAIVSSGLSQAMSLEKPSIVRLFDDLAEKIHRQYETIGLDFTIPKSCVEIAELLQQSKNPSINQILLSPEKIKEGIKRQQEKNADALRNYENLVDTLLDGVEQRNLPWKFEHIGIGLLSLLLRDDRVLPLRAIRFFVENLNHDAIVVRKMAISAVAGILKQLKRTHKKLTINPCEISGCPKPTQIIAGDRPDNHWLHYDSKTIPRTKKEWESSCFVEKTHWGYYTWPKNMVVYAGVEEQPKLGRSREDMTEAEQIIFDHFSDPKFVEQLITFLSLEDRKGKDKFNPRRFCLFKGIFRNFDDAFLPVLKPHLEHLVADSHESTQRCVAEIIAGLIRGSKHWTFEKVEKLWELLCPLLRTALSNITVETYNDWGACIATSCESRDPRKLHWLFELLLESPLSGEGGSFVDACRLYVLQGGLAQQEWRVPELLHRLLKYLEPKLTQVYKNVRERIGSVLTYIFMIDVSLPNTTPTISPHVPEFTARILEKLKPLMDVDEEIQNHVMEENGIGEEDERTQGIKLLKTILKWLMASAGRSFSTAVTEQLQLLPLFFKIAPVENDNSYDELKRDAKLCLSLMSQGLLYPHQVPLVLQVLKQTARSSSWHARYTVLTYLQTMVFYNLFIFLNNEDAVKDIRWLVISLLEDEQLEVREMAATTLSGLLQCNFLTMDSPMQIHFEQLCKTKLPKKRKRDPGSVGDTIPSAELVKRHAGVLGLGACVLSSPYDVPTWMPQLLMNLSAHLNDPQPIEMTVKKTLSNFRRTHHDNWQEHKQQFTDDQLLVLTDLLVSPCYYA
UniProt P35998: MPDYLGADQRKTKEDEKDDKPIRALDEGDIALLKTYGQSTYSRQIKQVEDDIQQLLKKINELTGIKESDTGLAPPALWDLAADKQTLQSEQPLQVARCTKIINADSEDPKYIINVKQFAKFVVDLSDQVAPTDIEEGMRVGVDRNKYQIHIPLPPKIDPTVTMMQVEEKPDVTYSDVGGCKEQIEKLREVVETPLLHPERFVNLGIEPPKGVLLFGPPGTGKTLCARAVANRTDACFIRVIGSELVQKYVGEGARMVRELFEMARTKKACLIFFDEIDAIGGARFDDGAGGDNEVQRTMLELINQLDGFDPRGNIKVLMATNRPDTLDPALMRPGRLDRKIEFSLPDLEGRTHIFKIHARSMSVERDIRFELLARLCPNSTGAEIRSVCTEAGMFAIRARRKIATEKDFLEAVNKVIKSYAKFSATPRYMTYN
UniProt O15315: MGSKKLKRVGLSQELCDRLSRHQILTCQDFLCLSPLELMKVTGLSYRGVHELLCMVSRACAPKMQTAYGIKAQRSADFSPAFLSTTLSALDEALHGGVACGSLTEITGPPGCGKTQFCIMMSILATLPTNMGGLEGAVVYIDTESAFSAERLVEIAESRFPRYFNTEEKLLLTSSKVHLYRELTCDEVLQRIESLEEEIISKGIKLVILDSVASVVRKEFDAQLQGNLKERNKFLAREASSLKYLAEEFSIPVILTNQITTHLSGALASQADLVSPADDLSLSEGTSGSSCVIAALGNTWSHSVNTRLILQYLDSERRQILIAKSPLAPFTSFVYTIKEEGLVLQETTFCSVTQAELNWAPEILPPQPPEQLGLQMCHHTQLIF
UniProt Q12923, 2216-2235: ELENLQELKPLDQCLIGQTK
UniProt Q96DA2: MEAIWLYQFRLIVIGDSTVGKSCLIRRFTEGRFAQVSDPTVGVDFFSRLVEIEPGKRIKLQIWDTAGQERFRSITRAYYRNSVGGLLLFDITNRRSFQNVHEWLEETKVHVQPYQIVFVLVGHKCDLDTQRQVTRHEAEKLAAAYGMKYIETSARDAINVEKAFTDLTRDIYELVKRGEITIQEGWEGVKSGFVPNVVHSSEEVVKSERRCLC
UniProt Q9UL46, whole entry, looked up: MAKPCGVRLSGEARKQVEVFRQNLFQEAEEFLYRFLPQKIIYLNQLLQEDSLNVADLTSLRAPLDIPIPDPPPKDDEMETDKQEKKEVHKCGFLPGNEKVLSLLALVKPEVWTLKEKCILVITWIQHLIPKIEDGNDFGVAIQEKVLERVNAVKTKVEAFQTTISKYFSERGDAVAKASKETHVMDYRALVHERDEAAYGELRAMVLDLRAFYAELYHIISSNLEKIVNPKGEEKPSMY
UniProt Q5THK1, 1411-1435: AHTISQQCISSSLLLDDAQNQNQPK
UniProt Q9Y3T6: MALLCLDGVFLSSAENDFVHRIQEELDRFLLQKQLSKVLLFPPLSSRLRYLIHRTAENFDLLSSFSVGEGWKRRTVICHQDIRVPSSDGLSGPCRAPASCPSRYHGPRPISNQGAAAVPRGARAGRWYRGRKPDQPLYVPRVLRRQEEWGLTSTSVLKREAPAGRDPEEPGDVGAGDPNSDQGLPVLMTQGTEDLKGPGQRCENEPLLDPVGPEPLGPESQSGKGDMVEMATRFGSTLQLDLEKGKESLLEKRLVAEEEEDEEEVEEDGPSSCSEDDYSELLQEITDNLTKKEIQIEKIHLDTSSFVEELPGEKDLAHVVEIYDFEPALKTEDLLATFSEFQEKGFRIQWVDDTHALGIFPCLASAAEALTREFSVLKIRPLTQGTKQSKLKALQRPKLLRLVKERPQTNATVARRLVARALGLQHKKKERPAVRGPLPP
UniProt O95716: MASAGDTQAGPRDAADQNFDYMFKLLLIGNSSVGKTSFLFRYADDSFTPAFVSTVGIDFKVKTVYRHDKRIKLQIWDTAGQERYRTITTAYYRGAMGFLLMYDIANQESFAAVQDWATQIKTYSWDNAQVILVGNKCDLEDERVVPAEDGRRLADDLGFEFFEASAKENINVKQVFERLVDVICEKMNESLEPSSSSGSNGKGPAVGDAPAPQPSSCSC
UniProt Q8WUD1: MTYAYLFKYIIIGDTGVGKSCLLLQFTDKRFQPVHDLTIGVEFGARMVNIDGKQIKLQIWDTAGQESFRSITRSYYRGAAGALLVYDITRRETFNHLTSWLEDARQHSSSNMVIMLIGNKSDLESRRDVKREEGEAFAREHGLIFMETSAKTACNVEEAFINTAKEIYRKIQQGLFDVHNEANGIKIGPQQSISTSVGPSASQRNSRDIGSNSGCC

Columns and labels:
[1] = compound: ClCC(=O)N[C@H]1CCCc2ccccc12; assay: log2 mean competition ratio of IA-DTB cysteine labelling (DMSO/compound) (log2 ratio); higher = stronger cysteine engagement by compound; details: treatment time: 4 h, cell line lysate: HEK293T
Procedure: (§1)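 IA-DTB competitive cysteine chemoproteomics in HEK293T RIPA lysate. Lysates were treated with compound 29 or 30 at 50 or 200 µM for 4 h, then IA-DTB (500 µM, 1 h), trypsin-digested, NeutrAvidin-enriched and analysed by diaPASEF. Competition ratio = intensity DMSO / intensity compound (n=4 treated, n=64 DMSO); binding: mean log2 CR ≥ 1 and p ≤ 0.05 plus QC filters. Target is the cysteine site.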

[2] = compound: ClCC(=O)N[C@@H]1CCCc2ccccc12; assay: as above; details: treatment time: 4 h, cell line lysate: HEK293T
Procedure: as §1

Target: RAB7A C143 (UniProt P51149)
- log2 mean competition ratio ([1]; 50 µM): 0.562
- log2 mean competition ratio ([1]; 200 µM): 0.0569

Target: RAB23 C130 (UniProt Q9ULC3)
- log2 mean competition ratio ([2]; 50 µM): -0.19
- log2 mean competition ratio ([2]; 200 µM): -0.29
- log2 mean competition ratio ([1]; 50 µM): -0.501
- log2 mean competition ratio ([1]; 200 µM): -0.27

Target: RABGAP1 C1026 (UniProt Q9Y3P9)
- log2 mean competition ratio ([2]; 50 µM): 0.617
- log2 mean competition ratio ([2]; 200 µM): 0.0339
- log2 mean competition ratio ([1]; 50 µM): 0.813
- log2 mean competition ratio ([1]; 200 µM): 0.147

Target: RAD51 C31 (UniProt Q06609)
- log2 mean competition ratio ([1]; 50 µM): -0.37
- log2 mean competition ratio ([1]; 200 µM): 0.105

Target: PTCD1 C332 (UniProt O75127)
- log2 mean competition ratio ([1]; 50 µM): -0.278
- log2 mean competition ratio ([1]; 200 µM): -0.15

Target: PSMA1 C92 (UniProt P25786)
- log2 mean competition ratio ([2]; 50 µM): -0.24
- log2 mean competition ratio ([2]; 200 µM): 0.335
- log2 mean competition ratio ([1]; 50 µM): 0.132
- log2 mean competition ratio ([1]; 200 µM): 0.414

Target: RAB8A C123 (UniProt P61006)
- log2 mean competition ratio ([1]; 50 µM): -0.315
- log2 mean competition ratio ([1]; 200 µM): -0.274

Target: PRRC2C C620 (UniProt Q9Y520)
- log2 mean competition ratio ([2]; 50 µM): -0.152
- log2 mean competition ratio ([2]; 200 µM): -0.475
- log2 mean competition ratio ([1]; 50 µM): -0.8
- log2 mean competition ratio ([1]; 200 µM): -0.269

Target: PTPDC1 C380 (UniProt A2A3K4)
- log2 mean competition ratio ([2]; 200 µM): 0.672
- log2 mean competition ratio ([1]; 50 µM): -0.0577
- log2 mean competition ratio ([1]; 200 µM): 0.158

Target: PUM2 C169
- log2 mean competition ratio ([1]; 50 µM): 0.238
- log2 mean competition ratio ([1]; 200 µM): 0.106

Target: PSME4 C710 (UniProt Q14997)
- log2 mean competition ratio ([2]; 50 µM): 0.0056
- log2 mean competition ratio ([2]; 200 µM): -0.243
- log2 mean competition ratio ([1]; 50 µM): 0.29
- log2 mean competition ratio ([1]; 200 µM): -0.192

Target: RAD21 C78 (UniProt O60216)
- log2 mean competition ratio ([1]; 50 µM): 0.0239
- log2 mean competition ratio ([1]; 200 µM): 0.172

Target: PRRC2B C868
- log2 mean competition ratio ([1]; 50 µM): 0.00608
- log2 mean competition ratio ([1]; 200 µM): -0.0856

Target: R3HCC1L C469
- log2 mean competition ratio ([1]; 50 µM): -0.00495
- log2 mean competition ratio ([1]; 200 µM): 0.214

Target: R3HCC1L C40
- log2 mean competition ratio ([1]; 50 µM): -0.0106
- log2 mean competition ratio ([1]; 200 µM): -0.231

Target: PSMC2 C389 (UniProt P35998)
- log2 mean competition ratio ([2]; 50 µM): 0.243
- log2 mean competition ratio ([2]; 200 µM): 0.0622
- log2 mean competition ratio ([1]; 50 µM): 0.215
- log2 mean competition ratio ([1]; 200 µM): 0.0662

Target: PSMD11 C202 (UniProt O00231)
- log2 mean competition ratio ([1]; 50 µM): -0.364
- log2 mean competition ratio ([1]; 200 µM): -0.138

Target: RAD51B C16 (UniProt O15315)
- log2 mean competition ratio ([2]; 50 µM): 0.101
- log2 mean competition ratio ([2]; 200 µM): 0.141
- log2 mean competition ratio ([1]; 50 µM): 0.0647
- log2 mean competition ratio ([1]; 200 µM): 0.242

Target: PSMD4 C87
- log2 mean competition ratio ([1]; 50 µM): -0.334
- log2 mean competition ratio ([1]; 200 µM): -0.193

Target: RAB3GAP1 C858 (UniProt Q15042)
- log2 mean competition ratio ([2]; 50 µM): -0.103
- log2 mean competition ratio ([2]; 200 µM): -0.197
- log2 mean competition ratio ([1]; 50 µM): -0.254
- log2 mean competition ratio ([1]; 200 µM): -0.314

Target: RAD54L C20 (UniProt Q92698)
- log2 mean competition ratio ([1]; 50 µM): 0.278
- log2 mean competition ratio ([1]; 200 µM): -0.223

Target: RACK1 C153
- log2 mean competition ratio ([1]; 50 µM): 0.12
- log2 mean competition ratio ([1]; 200 µM): -0.414

Target: PYGB C319 (UniProt P11216)
- log2 mean competition ratio ([1]; 50 µM): 0.0281
- log2 mean competition ratio ([1]; 200 µM): 0.00157

Target: RAD21 C392 (UniProt O60216)
- log2 mean competition ratio ([1]; 50 µM): 0.00659
- log2 mean competition ratio ([1]; 200 µM): -0.0332

Target: PTAR1 C37 (UniProt Q7Z6K3)
- log2 mean competition ratio ([1]; 50 µM): 0.242
- log2 mean competition ratio ([1]; 200 µM): 0.000398

Target: PTPN13 C2229 (UniProt Q12923)
- log2 mean competition ratio ([1]; 50 µM): -0.751
- log2 mean competition ratio ([1]; 200 µM): -0.607

Target: RAB11FIP2 C384
- log2 mean competition ratio ([1]; 50 µM): -0.366
- log2 mean competition ratio ([1]; 200 µM): -0.0288

Target: PRRC2B C1184
- log2 mean competition ratio ([1]; 50 µM): 0.145
- log2 mean competition ratio ([1]; 200 µM): 0.197

Target: PSMC2 C236 (UniProt P35998)
- log2 mean competition ratio ([1]; 50 µM): 0.276
- log2 mean competition ratio ([1]; 200 µM): 0.396

Target: RAB39B C125 (UniProt Q96DA2)
- log2 mean competition ratio ([1]; 50 µM): 0.102
- log2 mean competition ratio ([1]; 200 µM): 0.305

Target: PRRC2B C819
- log2 mean competition ratio ([1]; 50 µM): 0.0405
- log2 mean competition ratio ([1]; 200 µM): 0.238

Target: PSMA6 C78 (UniProt P60900)
- log2 mean competition ratio ([1]; 50 µM): 0.508
- log2 mean competition ratio ([1]; 200 µM): -0.174

Target: PYGB C326 (UniProt P11216)
- log2 mean competition ratio ([1]; 50 µM): -0.135
- log2 mean competition ratio ([1]; 200 µM): 0.0892

Target: PTPN13 C588 (UniProt Q12923)
- log2 mean competition ratio ([1]; 50 µM): -0.174
- log2 mean competition ratio ([1]; 200 µM): 0.0434

Target: PTPN13 C2024 (UniProt Q12923)
- log2 mean competition ratio ([1]; 50 µM): 0.268
- log2 mean competition ratio ([1]; 200 µM): 0.145

Target: PXDC1 C115
- log2 mean competition ratio ([1]; 50 µM): -0.207
- log2 mean competition ratio ([1]; 200 µM): 0.207

Target: RAD50 C633
- log2 mean competition ratio ([1]; 50 µM): 0.062
- log2 mean competition ratio ([1]; 200 µM): -0.323

Target: PSME2 C91 (UniProt Q9UL46)
- log2 mean competition ratio ([1]; 50 µM): -0.0463
- log2 mean competition ratio ([1]; 200 µM): 0.0205

Target: PRRC2C C2340 (UniProt Q9Y520)
- log2 mean competition ratio ([1]; 50 µM): 0.129
- log2 mean competition ratio ([1]; 200 µM): 0.287

Target: RAB39A C185
- log2 mean competition ratio ([1]; 50 µM): -0.106
- log2 mean competition ratio ([1]; 200 µM): -0.107

Target: RABGAP1 C476 (UniProt Q9Y3P9)
- log2 mean competition ratio ([1]; 50 µM): 0.00979
- log2 mean competition ratio ([1]; 200 µM): -0.162

Target: PWP1 C329 (UniProt Q13610)
- log2 mean competition ratio ([1]; 50 µM): -0.229
- log2 mean competition ratio ([1]; 200 µM): 0.129

Target: PSAT1 C224 (UniProt Q9Y617)
- log2 mean competition ratio ([1]; 50 µM): 0.249
- log2 mean competition ratio ([1]; 200 µM): -0.0658

Target: PRR14L C1418 (UniProt Q5THK1)
- log2 mean competition ratio ([1]; 50 µM): 0.0234
- log2 mean competition ratio ([1]; 200 µM): -0.0588

Target: PTPN13 C1705 (UniProt Q12923)
- log2 mean competition ratio ([1]; 50 µM): 0.111
- log2 mean competition ratio ([1]; 200 µM): 0.0795

Target: PSMD5 C133 (UniProt Q16401)
- log2 mean competition ratio ([1]; 50 µM): -0.22
- log2 mean competition ratio ([1]; 200 µM): -0.149

Target: R3HCC1 C78 (UniProt Q9Y3T6+R3HCC1)
- log2 mean competition ratio ([1]; 50 µM): 0.00131
- log2 mean competition ratio ([1]; 200 µM): 0.144

Target: RAD50 C102
- log2 mean competition ratio ([1]; 50 µM): 0.188
- log2 mean competition ratio ([1]; 200 µM): 0.0243

Target: PSMA1 C182 (UniProt P25786)
- log2 mean competition ratio ([1]; 50 µM): 0.027
- log2 mean competition ratio ([1]; 200 µM): 0.0852

Target: QARS1 C556, A0A0U1RR66
- log2 mean competition ratio ([1]; 50 µM): 0.0761
- log2 mean competition ratio ([1]; 200 µM): -0.364

Target: RAD50 C1302
- log2 mean competition ratio ([1]; 50 µM): 0.475
- log2 mean competition ratio ([1]; 200 µM): 0.254

Target: PSMD1 C141
- log2 mean competition ratio ([1]; 50 µM): -0.0894
- log2 mean competition ratio ([1]; 200 µM): -0.168

Target: RAB3D C137 (UniProt O95716)
- log2 mean competition ratio ([1]; 50 µM): -0.227
- log2 mean competition ratio ([1]; 200 µM): 0.11

Target: PRRC2C C895 (UniProt Q9Y520)
- log2 mean competition ratio ([1]; 50 µM): -0.401
- log2 mean competition ratio ([1]; 200 µM): 0.258

Target: PTPRU C1085
- log2 mean competition ratio ([1]; 50 µM): 0.421
- log2 mean competition ratio ([1]; 200 µM): -0.166

Target: RAB2B C154 (UniProt Q8WUD1)
- log2 mean competition ratio ([1]; 50 µM): -0.0185
- log2 mean competition ratio ([1]; 200 µM): -0.0704

Target: RAD54B C789 (UniProt Q9Y620)
- log2 mean competition ratio ([1]; 50 µM): -0.225
- log2 mean competition ratio ([1]; 200 µM): 0.027

Target: PRRC2B C1101
- log2 mean competition ratio ([1]; 50 µM): 0.325
- log2 mean competition ratio ([1]; 200 µM): 0.209
